Test results published in the supplement of paper PMC8728848.
Some of the results follow.

Legend:
Assay in all cases: glycan array binding signal (z-score within array); higher = stronger binding
Settings in all cases: glycan notation: IUPAC condensed, linker removed
Gal(b1-4)Glc = target: Gal(b1-4)Glc
Outline: (§1)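 Glycan array data were curated from 3228 arrays in the Consortium for Functional Glycomics database and kept only where the protein sequence was available. Glycan names were converted to IUPAC-condensed notation, and columns mapping to the same glycan were averaged. The binding signal is a within-array Z-score, averaged across arrays of the same protein sequence at different concentrations or buffers and across linkers. Negative Z-scores can be read as non-binding.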

Gal(b1-4)Glc6S = target: Gal(b1-4)Glc6S
Outline: as §1

Gal(b1-4)GlcNAc = target: Gal(b1-4)GlcNAc
Outline: as §1

[1] = target: Gal(b1-4)GlcNAc(a1-6)Gal(b1-4)GlcNAc
Outline: as §1

Gal(b1-4)GlcNAc(b1-2)Man = target: Gal(b1-4)GlcNAc(b1-2)Man
Outline: as §1

[2] = target: Gal(b1-4)GlcNAc(b1-2)Man(a1-3)Man(b1-4)GlcNAc(b1-4)GlcNAc
Outline: as §1

[3] = target: Gal(b1-4)GlcNAc(b1-2)Man(a1-3)[Gal(b1-4)GlcNAc(b1-2)Man(a1-6)]Man(b1-4)GlcNAc(b1-4)GlcNAc
Outline: as §1

[4] = target: Gal(b1-4)GlcNAc(b1-2)Man(a1-3)[Gal(b1-4)GlcNAc(b1-2)Man(a1-6)]Man(b1-4)GlcNAc(b1-4)[Fuc(a1-6)]GlcNAc
Outline: as §1

[5] = target: Gal(b1-4)GlcNAc(b1-2)Man(a1-3)[Gal(b1-4)GlcNAc(b1-2)Man(a1-6)][Gal(b1-4)GlcNAc(b1-4)]Man(b1-4)GlcNAc(b1-4)[Fuc(a1-6)]GlcNAc
Outline: as §1

[6] = target: Gal(b1-4)GlcNAc(b1-2)Man(a1-3)[Gal(b1-4)GlcNAc(b1-2)Man(a1-6)][GlcNAc(b1-4)]Man(b1-4)GlcNAc(b1-4)[Fuc(a1-6)]GlcNAc
Outline: as §1

[7] = target: Gal(b1-4)GlcNAc(b1-2)Man(a1-3)[GlcNAc(b1-2)Man(a1-6)]Man(b1-4)GlcNAc(b1-4)GlcNAc
Outline: as §1

[8] = target: Gal(b1-4)GlcNAc(b1-2)Man(a1-3)[GlcNAc(b1-4)][Gal(b1-4)GlcNAc(b1-2)Man(a1-6)]Man(b1-4)GlcNAc(b1-4)GlcNAc
Outline: as §1

[9] = target: Gal(b1-4)GlcNAc(b1-2)Man(a1-3)[Man(a1-6)]Man(b1-4)GlcNAc(b1-4)GlcNAc
Outline: as §1

[10] = target: Gal(b1-4)GlcNAc(b1-2)Man(a1-6)Man(b1-4)GlcNAc(b1-4)GlcNAc
Outline: as §1

[11] = target: Gal(b1-4)GlcNAc(b1-2)Man(a1-6)[GlcNAc(b1-2)Man(a1-3)]Man(b1-4)GlcNAc(b1-4)GlcNAc
Outline: as §1

[12] = target: Gal(b1-4)GlcNAc(b1-2)Man(a1-6)[Man(a1-3)]Man(b1-4)GlcNAc(b1-4)GlcNAc
Outline: as §1

[13] = target: Gal(b1-4)GlcNAc(b1-2)[Gal(b1-4)GlcNAc(b1-4)]Man(a1-3)[Gal(b1-4)GlcNAc(b1-2)Man(a1-6)]Man(b1-4)GlcNAc(b1-4)GlcNAc
Outline: as §1

[14] = target: Gal(b1-4)GlcNAc(b1-2)[Gal(b1-4)GlcNAc(b1-4)]Man(a1-3)[Gal(b1-4)GlcNAc(b1-2)[Gal(b1-4)GlcNAc(b1-6)]Man(a1-6)]Man(b1-4)GlcNAc(b1-4)GlcNAc
Outline: as §1

[15] = target: Gal(b1-4)GlcNAc(b1-2)[Gal(b1-4)GlcNAc(b1-4)]Man(a1-3)[GlcNAc(b1-4)][Gal(b1-4)GlcNAc(b1-2)Man(a1-6)]Man(b1-4)GlcNAc(b1-4)GlcNAc
Outline: as §1

[16] = target: Gal(b1-4)GlcNAc(b1-2)[Gal(b1-4)GlcNAc(b1-4)]Man(a1-3)[GlcNAc(b1-4)][Gal(b1-4)GlcNAc(b1-2)[Gal(b1-4)GlcNAc(b1-6)]Man(a1-6)]Man(b1-4)GlcNAc(b1-4)GlcNAc
Outline: as §1

[17] = target: Gal(b1-4)GlcNAc(b1-2)[Gal(b1-4)GlcNAc(b1-6)]Man(a1-6)[Gal(b1-4)GlcNAc(b1-2)Man(a1-3)]Man(b1-4)GlcNAc(b1-4)GlcNAc
Outline: as §1

[18] = target: Gal(b1-4)GlcNAc(b1-2)[Gal(b1-4)GlcNAc(b1-6)]Man(a1-6)[Gal(b1-4)GlcNAc(b1-2)Man(a1-3)]Man(b1-4)GlcNAc(b1-4)[Fuc(a1-6)]GlcNAc
Outline: as §1

B1: EUL D1A second (Oryza sativa) (protein)
chain: GAATACTIGGVPVHTVRVFSAAGEDYCLTVRNGTACLAPKNPRDDYQHWIKDMRHSNKIRDEEGYPAFALVNKVTGEAIKHSTGQGHPVKLVPYNPEYQDESVLWTESKDVGKGFRCIRMVNNIYLNFDAFHGDKDHGGIHDGTEIVLWKWCEGDNQRWKILPWILEQKLISEEDLNSAVDHHHHHH
glycan array binding signal (z-score) (Gal(b1-4)Glc): -0.608
glycan array binding signal (z-score) (Gal(b1-4)Glc6S): 0.01
glycan array binding signal (z-score) (Gal(b1-4)GlcNAc): -0.719
glycan array binding signal (z-score) [1]: -1.6
glycan array binding signal (z-score) (Gal(b1-4)GlcNAc(b1-2)Man): 1.59
glycan array binding signal (z-score) [2]: -0.544
glycan array binding signal (z-score) [3]: -0.998
glycan array binding signal (z-score) [4]: -0.357
glycan array binding signal (z-score) [5]: 0.177
glycan array binding signal (z-score) [6]: -1.38
glycan array binding signal (z-score) [7]: 0.253
glycan array binding signal (z-score) [8]: 0.913
glycan array binding signal (z-score) [9]: -0.232
glycan array binding signal (z-score) [10]: 0.061
glycan array binding signal (z-score) [11]: -0.553
glycan array binding signal (z-score) [12]: -0.072
glycan array binding signal (z-score) [13]: 0.507
glycan array binding signal (z-score) [14]: -0.807
glycan array binding signal (z-score) [15]: -1.21
glycan array binding signal (z-score) [16]: -0.986
glycan array binding signal (z-score) [17]: -0.049
glycan array binding signal (z-score) [18]: 1.58
